From the supplement of paper PMC10849652 come the findings set out here.

Sequences of proteins named here, by UniProt entry; tags and fusion partners are left off. A change or cut given only in a name is not applied to a line headed by its entry.
UniProt Q9BRU9: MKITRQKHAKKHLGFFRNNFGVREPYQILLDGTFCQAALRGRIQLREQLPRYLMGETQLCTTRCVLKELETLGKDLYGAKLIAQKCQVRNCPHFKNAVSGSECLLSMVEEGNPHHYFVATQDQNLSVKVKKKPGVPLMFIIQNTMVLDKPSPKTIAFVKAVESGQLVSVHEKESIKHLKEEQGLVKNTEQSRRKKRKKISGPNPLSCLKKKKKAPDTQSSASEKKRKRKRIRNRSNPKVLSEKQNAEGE
UniProt Q14135: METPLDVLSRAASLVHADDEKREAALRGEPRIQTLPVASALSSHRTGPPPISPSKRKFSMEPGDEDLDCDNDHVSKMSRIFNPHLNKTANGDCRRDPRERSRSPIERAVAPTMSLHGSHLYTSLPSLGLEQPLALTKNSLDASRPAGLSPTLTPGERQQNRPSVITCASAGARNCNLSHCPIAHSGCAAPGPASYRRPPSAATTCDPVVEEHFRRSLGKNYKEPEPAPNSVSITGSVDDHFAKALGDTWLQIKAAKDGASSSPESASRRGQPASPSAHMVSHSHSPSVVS
UniProt P62068, whole entry, looked up: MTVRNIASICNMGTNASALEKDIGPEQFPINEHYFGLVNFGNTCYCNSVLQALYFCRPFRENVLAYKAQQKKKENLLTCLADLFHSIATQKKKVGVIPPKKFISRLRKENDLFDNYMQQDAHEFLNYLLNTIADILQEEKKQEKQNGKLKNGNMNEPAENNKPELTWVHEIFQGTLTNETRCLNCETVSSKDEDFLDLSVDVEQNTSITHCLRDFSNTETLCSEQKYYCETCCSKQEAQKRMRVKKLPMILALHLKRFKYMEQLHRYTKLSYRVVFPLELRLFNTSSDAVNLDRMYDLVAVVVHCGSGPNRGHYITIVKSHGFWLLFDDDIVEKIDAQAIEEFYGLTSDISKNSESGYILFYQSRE
UniProt P13051, whole entry, looked up: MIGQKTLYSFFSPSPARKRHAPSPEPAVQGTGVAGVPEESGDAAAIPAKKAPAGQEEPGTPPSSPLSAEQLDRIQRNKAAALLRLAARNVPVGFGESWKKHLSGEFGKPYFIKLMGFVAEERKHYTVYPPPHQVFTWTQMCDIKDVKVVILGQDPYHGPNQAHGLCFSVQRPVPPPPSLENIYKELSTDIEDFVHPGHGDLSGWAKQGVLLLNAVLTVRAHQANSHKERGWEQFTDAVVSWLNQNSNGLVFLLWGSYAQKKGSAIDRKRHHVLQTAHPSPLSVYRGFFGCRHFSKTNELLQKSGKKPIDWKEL
UniProt Q9H1J1: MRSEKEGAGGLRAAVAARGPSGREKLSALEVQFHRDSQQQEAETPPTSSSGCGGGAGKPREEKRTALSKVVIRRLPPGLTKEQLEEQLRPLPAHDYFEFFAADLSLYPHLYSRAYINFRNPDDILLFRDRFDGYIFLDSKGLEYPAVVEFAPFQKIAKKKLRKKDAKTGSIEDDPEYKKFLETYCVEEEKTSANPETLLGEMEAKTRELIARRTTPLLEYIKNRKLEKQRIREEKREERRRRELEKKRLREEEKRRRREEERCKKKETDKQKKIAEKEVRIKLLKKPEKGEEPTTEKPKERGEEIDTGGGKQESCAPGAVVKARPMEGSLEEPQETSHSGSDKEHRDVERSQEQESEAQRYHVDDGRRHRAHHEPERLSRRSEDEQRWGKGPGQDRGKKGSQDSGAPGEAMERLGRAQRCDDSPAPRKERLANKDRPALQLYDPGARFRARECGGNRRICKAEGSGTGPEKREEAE
UniProt O94763, whole entry, looked up: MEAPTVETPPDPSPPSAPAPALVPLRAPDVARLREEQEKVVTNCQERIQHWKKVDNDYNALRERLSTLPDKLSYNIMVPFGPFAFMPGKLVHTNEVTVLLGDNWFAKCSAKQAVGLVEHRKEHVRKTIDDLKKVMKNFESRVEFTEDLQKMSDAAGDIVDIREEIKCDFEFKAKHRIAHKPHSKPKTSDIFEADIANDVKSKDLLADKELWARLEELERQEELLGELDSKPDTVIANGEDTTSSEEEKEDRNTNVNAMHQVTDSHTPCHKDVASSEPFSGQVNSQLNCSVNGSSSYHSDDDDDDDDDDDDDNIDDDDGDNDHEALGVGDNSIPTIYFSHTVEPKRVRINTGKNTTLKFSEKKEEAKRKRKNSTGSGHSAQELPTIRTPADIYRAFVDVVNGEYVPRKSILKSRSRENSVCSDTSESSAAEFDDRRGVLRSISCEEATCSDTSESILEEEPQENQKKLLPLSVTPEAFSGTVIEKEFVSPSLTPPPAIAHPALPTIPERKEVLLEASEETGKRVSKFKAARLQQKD
UniProt Q9ULK5: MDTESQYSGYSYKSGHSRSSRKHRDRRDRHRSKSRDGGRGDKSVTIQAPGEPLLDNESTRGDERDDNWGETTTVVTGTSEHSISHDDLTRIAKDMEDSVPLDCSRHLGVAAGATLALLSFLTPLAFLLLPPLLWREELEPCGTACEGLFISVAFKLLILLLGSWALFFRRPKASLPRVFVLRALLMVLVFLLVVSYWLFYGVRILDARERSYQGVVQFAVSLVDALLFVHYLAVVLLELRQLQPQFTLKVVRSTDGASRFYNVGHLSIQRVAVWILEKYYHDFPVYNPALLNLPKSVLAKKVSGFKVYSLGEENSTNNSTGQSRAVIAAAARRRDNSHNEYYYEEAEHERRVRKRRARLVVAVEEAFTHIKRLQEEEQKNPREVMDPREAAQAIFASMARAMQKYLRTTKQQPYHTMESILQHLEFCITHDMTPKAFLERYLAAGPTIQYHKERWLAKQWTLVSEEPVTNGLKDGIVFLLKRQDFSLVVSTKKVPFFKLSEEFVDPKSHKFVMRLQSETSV
UniProt Q9H867: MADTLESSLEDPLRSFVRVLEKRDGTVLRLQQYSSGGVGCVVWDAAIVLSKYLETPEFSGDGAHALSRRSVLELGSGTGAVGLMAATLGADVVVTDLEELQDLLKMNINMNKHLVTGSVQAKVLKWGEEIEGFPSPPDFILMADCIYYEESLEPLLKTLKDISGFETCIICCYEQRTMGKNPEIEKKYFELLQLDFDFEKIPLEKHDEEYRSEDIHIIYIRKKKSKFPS
UniProt Q68DE3: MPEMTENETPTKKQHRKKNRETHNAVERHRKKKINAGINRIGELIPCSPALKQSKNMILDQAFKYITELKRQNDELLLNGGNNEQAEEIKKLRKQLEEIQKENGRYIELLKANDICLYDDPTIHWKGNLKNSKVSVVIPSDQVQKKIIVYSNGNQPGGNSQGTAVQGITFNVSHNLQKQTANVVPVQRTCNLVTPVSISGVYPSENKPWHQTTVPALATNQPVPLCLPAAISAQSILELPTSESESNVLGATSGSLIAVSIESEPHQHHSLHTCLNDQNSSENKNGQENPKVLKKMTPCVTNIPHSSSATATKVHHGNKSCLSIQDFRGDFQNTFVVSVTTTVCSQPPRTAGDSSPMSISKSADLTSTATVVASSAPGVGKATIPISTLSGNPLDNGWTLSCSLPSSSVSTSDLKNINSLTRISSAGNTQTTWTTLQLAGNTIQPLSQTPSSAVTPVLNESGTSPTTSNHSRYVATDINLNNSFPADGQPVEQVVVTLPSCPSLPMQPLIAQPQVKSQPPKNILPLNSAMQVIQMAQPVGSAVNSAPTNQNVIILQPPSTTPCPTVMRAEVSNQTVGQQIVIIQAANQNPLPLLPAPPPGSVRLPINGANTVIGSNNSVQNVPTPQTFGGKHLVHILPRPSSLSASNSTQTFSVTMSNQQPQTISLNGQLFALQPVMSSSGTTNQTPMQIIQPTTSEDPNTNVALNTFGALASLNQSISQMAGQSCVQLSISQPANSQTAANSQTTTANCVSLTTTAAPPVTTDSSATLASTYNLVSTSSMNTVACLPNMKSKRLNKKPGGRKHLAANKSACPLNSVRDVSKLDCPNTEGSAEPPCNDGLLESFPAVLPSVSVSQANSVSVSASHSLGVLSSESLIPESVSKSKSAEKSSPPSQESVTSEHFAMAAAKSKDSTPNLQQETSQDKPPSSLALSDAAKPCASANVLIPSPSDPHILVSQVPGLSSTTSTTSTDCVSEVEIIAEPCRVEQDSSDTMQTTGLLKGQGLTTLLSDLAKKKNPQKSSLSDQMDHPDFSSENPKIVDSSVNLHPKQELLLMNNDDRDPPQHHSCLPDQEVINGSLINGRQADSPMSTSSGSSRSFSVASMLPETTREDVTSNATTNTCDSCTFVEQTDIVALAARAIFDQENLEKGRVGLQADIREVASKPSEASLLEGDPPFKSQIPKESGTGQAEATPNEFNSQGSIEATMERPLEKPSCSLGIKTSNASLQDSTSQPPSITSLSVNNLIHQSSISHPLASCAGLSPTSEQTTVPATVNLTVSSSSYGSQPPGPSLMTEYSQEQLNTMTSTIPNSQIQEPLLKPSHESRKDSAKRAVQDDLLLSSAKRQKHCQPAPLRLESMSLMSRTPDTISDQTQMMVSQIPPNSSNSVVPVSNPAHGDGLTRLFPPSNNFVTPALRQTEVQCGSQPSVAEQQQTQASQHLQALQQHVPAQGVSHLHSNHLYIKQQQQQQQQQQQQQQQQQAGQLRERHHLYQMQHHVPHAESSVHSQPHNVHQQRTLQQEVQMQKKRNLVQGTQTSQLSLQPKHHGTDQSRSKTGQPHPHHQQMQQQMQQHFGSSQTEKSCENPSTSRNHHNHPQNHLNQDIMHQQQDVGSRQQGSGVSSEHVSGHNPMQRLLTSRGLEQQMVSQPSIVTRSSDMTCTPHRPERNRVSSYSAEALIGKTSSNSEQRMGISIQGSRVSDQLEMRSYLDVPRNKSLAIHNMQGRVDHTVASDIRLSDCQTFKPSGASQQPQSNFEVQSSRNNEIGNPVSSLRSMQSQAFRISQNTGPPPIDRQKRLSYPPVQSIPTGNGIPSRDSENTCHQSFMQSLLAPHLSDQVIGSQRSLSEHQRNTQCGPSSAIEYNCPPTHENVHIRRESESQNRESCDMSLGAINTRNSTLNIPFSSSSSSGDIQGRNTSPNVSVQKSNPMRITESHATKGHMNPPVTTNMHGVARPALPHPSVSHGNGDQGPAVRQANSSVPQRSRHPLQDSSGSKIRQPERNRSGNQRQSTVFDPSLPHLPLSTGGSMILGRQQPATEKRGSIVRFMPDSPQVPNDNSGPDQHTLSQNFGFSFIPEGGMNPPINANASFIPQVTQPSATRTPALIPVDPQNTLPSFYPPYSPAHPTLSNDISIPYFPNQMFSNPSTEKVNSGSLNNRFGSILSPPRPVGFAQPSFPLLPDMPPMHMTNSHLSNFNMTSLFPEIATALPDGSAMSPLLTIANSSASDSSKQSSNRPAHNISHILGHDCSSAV
UniProt Q9H9J4: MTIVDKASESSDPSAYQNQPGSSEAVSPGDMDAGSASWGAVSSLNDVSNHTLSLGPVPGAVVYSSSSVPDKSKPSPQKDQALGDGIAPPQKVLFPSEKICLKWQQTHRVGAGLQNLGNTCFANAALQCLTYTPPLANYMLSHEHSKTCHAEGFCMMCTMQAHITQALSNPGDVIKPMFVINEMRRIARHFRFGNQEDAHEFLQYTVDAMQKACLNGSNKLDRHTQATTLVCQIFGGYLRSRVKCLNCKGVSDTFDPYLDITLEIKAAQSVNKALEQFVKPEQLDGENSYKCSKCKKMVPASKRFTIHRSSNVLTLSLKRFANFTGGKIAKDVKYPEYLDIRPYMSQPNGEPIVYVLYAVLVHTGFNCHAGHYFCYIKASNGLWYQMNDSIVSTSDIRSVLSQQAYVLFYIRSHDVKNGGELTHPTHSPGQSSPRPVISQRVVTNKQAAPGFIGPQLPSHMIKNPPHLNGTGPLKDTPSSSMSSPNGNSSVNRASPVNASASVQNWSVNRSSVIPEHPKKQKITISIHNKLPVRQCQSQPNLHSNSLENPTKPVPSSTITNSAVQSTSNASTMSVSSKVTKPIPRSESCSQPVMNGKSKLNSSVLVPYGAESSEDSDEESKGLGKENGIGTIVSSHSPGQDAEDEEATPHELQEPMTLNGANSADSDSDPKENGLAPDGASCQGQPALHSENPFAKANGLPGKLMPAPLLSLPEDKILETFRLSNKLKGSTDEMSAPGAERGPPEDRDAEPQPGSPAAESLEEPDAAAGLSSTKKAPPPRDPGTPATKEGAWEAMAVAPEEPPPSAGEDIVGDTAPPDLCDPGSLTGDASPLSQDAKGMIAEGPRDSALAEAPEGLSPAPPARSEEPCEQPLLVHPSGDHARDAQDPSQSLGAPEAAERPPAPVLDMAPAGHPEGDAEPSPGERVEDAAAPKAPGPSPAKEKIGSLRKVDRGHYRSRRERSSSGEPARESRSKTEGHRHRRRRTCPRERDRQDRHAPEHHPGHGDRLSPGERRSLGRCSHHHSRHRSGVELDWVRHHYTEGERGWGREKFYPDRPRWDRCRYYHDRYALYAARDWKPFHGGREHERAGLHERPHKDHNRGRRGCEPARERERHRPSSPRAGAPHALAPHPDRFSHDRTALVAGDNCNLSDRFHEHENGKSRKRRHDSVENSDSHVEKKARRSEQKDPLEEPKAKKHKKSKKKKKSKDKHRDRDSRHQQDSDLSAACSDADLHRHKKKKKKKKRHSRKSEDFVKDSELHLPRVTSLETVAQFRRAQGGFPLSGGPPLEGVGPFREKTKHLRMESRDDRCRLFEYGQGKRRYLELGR

The other results are listed elsewhere or left out.

Compound in this experiment: C1=CC2=NC=CN=C2C=C1/C=C/3\C(=O)NC(=O)S3
The experiment in a line: log2 fold change, soluble protein after heating vs DMSO (PISA); higher = thermal stabilisation; K562 lysate, 10 uM; active = over 0.2 and 3.5 SD of the protein, either way, in both replicates (recomputed). In a few lines:
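A 30 min treatment with 10 μM compound was applied to crude K562 extract at 1 mg/mL protein in PBS pH 7.4 with 1 mM MgCl2. Heating for 3 min spanned 48°C-58°C, after which aliquots were pooled, adjusted to 0.5% NP-40 at 4°C and spun at 21,000xg for 90 min. TMTpro 16plex LC-MS/MS of the supernatant, with channel sums equalised, gave values recorded as log-two fold change in thermal stability against solvent controls, from duplicates.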
Take UTP23 (UniProt Q9BRU9): the log2 fold change is inactive: 0.018. For VGLL4 isoform 4 (UniProt Q14135), the log2 fold change was inactive: -0.003. In the case of USP46 (UniProt P62068), the log2 fold change is inactive: 0.084. Turning to USP5 (UniProt F5H571), the log2 fold change was inactive: -0.413. In the case of UTRN isoform 2 (UniProt P46939), the log2 fold change was inactive: -0.072. Take UNG (UniProt P13051): the log2 fold change was inactive: 0.205. With UPF3A (UniProt Q9H1J1) the figure was inactive: 0.072. With UNKL (UniProt E9PDK2), the log2 fold change was inactive: 0.061. For URGCP (UniProt Q8TCY9) the value was inactive: -0.01; for USP38 (UniProt Q8NB14), inactive: 0.198; for URI1 isoform 4 (UniProt O94763), inactive: 0.12.

As for VANGL2 (UniProt Q9ULK5), the log2 fold change is inactive: 0.018. VCX3B (UniProt Q9H321): the log2 fold change is inactive: 0.006. As to VCPKMT (UniProt Q9H867), the log2 fold change was inactive: -0.071. As for USP7 (UniProt H3BND8), the log2 fold change was inactive: -0.015. Regarding USF3 (UniProt Q68DE3), the log2 fold change was inactive: -0.136. As to USP42 (UniProt Q9H9J4), the log2 fold change was inactive: -0.153. As to UTP11 (UniProt Q9Y3A2), the log2 fold change is inactive: -0.148. With UROD (UniProt H0Y5R6), the log2 fold change was inactive: 0.042.

As for USP20 (UniProt Q9Y2K6), the log2 fold change is inactive: 0.138.
